Binding data for two molecules are collected here from PMC6287019.

Amino acid sequences for entries named in this document (tags omitted). A change or cut given only in a name is not applied to a line headed by its entry. Chains listed by the source or under a name are the forms on record and can include a tag or linker.
mGluR1α-P/E (rat mGluR1α carrying the point mutation P1153E in the Homer binding domain) (P23385, form named): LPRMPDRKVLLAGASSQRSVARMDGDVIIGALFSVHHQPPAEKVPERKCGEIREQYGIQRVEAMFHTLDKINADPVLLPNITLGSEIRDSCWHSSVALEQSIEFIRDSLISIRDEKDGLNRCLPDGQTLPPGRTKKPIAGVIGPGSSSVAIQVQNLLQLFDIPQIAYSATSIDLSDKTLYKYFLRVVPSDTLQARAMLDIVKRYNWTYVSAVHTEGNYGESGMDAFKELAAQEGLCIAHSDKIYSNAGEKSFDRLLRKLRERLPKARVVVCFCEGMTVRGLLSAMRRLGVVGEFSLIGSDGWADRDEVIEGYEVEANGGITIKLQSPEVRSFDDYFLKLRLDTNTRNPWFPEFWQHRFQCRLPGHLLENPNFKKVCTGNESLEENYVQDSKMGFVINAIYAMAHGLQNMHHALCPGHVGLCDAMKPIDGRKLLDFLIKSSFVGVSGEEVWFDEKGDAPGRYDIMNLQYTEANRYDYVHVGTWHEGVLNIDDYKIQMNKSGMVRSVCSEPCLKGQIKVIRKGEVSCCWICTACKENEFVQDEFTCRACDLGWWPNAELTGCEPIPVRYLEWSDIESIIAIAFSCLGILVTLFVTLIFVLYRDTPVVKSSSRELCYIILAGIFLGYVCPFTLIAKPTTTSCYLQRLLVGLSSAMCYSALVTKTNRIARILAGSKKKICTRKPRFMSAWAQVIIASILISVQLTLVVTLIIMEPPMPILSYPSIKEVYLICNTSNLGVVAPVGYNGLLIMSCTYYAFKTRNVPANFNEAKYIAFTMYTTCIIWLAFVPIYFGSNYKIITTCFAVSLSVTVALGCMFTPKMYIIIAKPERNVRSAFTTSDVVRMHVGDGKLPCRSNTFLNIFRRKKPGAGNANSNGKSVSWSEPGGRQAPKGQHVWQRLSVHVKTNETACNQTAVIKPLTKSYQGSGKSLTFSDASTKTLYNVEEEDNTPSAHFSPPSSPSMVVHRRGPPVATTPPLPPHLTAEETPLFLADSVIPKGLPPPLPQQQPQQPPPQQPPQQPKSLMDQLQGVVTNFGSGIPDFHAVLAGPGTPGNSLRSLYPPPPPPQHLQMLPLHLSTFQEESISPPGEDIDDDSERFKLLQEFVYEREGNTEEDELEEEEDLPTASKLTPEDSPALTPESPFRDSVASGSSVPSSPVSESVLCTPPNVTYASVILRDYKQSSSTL

No constants are given. Whether binding was seen depends on the method and setting. Binding seen in cells or lysates may run through a third protein. Some results given as binding are weak or reduced against the parent protein; the word gives no strength.

This assay addresses mGluR1α-P/E (rat mGluR1α carrying the point mutation P1153E in the Homer binding domain) (rat) (UniProt P23385). As to the kind of experiment: co-IP; cerebella of mGluR1a-P/E-rescue mice homogenised in 50 mM Tris-HCl pH 7.5, 150 mM NaCl, 0.5% NP-40 with protease and phosphatase inhibitors; supernatant incubated at 4°C overnight with a rat monoclonal antibody against the mGluR1 N-terminus or rat IgG coupled to Sepharose beads; bound proteins immunoblotted for Homer, GluRδ2 and TRPC3.

B1: GluRδ2 (receptor, UniProt Q61625 24-1007)
chain: DSIIHIGAIFDESAKKDDEVFRTAVGDLNQNEEILQTEKITFSVTFVDGNNPFQAVQEACELMNQGILALVSSIGCTSAGSLQSLADAMHIPHLFIQRSTAGTPRSGCGLTRSNRNDDYTLSVRPPVYLNEVILRVVTEYAWQKFIIFYDSEYDIRGIQEFLDKVSQQGMDVALQKVENNINKMITTLFDTMRIEELNRYRDTLRRAILVMNPATAKSFISEVVETNLVAFDCHWIIINEEINDVDVQELVRRSIGRLTIIRQTFPVPQNISQRCFRGNHRISSSLCDPKDPFAQNMEISNLYIYDTVLLLANAFHKKLEDRKWHSMASLSCIRKNSKPWQGGRSMLETIKKGGVNGLTGDLEFGENGGNPNVHFEILGTNYGEELGRGVRKLGCWNPVTGLNGSLTDKKLENNMRGVVLRVVTVLEEPFVMVSENVLGKPKKYQGFSIDVLDALSNYLGFNYEIYVAPDHKYGSPQEDGTWNGLVGELVFKRADIGISALTITPDRENVVDFTTRYMDYSVGVLLRRAEKTVDMFACLAPFDLSLWACIAGTVLLVGLLVYLLNWLNPPRLQMGSMTSTTLYNSMWFVYGSFVQQGGEVPYTTLATRMMMGAWWLFALIVISSYTANLAAFLTITRIESSIQSLQDLSKQTDIPYGTVLDSAVYQHVRMKGLNPFERDSMYSQMWRMINRSNGSENNVLESQAGIQKVKYGNYAFVWDAAVLEYVAINDPDCSFYTVGNTVADRGYGIALQHGSPYRDVFSQRILELQQSGDMDILKHKWWPKNGQCDLYSSVDAKQKGGALDIKSLAGVFCILAAGIVLSCLIAVLETWWSRRKGSRVPSKEDDKEIDLEHLHRRVNSLCTDDDSPHKQFSTSSIDLTPLDIDTLPTRQALEQISDFRNTHITTTTFIPEQIQTLSRTLSAKAASGFAFGSVPEHRTGPFRHRAPNGGFFRSPIKTMSSIPYQPTPTLGLNLGNDPDRGTSI
As for B1, the binding entry is on record as “binds”.

B2: transient receptor potential channel 3 (TRPC3) (protein, UniProt Q9QZC1 1-910)
chain: MSTKVKKCREPARVTLPAPEEEEDGEAEGGESQRRRRGWRGVNGGLEPPCPRAPPSPGPDASSEGSPSRWRTAGMRDKGRRQAVRGPAFMFGARGPSLTAEEERFLDAAEYGNIPVVRKMLEESRTLNVNCVDYMGQNALQLAVGNEHLEVTELLLKKENLARIGDALLLAISKGYVRIVEAILGHPGFAASRRLTLSPCEQELRDDDFYAYDEDGTRFSPDITPIILAAHCHKYEVVHLLLLKGARIERPHDYFCRCSDCAEKQRLDAFSHSRSRINAYKGLASPAYLSLSSEDPVLTALELSNELAKLANIEKEFKNDYRKLSMQCKDFVVGVLDLCRDSEEVEAILNGDLESAEPLERHGHKASLSRVKLAIKYEVKKFVAHPNCQQQLLTIWYENLSGLREQTIAIKCLVVLVVALGLPFLAIGYWIAPCSRLGKILRSPFMKFVAHAASFIIFLGLLVFNASDRFEGITTLPNITVIDYPKQIFRVKTTQFTWTEMLIMVWVLGMMWSECKELWLEGPREYIVQLWNVLDFGMLSIFIAAFTARFLAFLQATKAQQYVDSHVQESDLSEVTLPPEVQYFTYARDKWLPSDPQIISEGLYAIAVVLSFSRIAYILPANESFGPLQISLGRTVKDIFKFMVLFIMVFLAFMIGMFILYSYYLGAKVNPAFTTVEESFKTLFWSIFGLSEVTSVVLKYDHKFIENIGYVLYGIYNVTMVVVLLNMLIAMINSSYQEIEDDSDVEWKFARSKLWLSYFDDGKTLPPPFSLVPSPKSFVYFIMRITNFSKCRRRRLQKDLELGMGNSKSRLNLFTQSNSRVFESHSFNSILNQPTRYQQIMKRLIKRYVLKAQVDKENDEVNEGELKEIKQDISSLRYELLEDKSQATEELAILIHKLSEKLNPSVLRCE
Turning to B2, the binding entry was “binds”.
